From the supplement of paper PMC10470496
Where a name gives a salt, the structure may show the parent alone. The list shows a part of the results. Many values rest on one well or one pass, so single values are uncertain.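 Three clinical Candida auris isolates (clades III, IV and I) from the CDC resistance isolate bank were grown in RPMI-1640 at 35°C. Growth was background-corrected OD600 relative to same-plate vehicle-only wells. Hits required over 50% inhibition in at least two strains and a plate-corrected B-score above 0.1.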

Tests used:
Test in all cases: growth relative to vehicle control (OD600 ratio) (fraction); higher = less inhibition
Details in all cases: 24 h
C. auris AR-384 = tested on: C. auris AR-384
C. auris AR-386 = tested on: C. auris AR-386
C. auris AR-387 = tested on: C. auris AR-387

Compound | growth (C. auris AR-384; 1 µM) | growth (C. auris AR-384; 10 µM) | growth (C. auris AR-386; 1 µM) | growth (C. auris AR-386; 10 µM) | growth (C. auris AR-387; 1 µM) | growth (C. auris AR-387; 10 µM)
O=c1ccc2ccccc2o1 [Coumarin] | 0.89 | 0.85 | 0.98 | 0.81 | 0.94 | 0.96
CN(C)CCOC(c1ccccc1)c1ccccc1 [Diphenhydramine HCl] | 0.95 | 1.33 | 0.62 | 1.07 | 0.82 | 0.82
C[C@H]1O[C@H](O[C@H]2[C@H](O)[C@@H](O)[C@@H](O[C@H]3[C@H](O)[C@@H](O)C(O)O[C@@H]3CO)O[C@@H]2CO)[C@H](O)[C@@H](O)[C@@H]1N[C@H]1C=C(CO)[C@@H](O)[C@H](O)[C@H]1O (some centres not stated) [Acarbose] | 0.97 | 0.83 | 1.16 | 0.87 | 0.93 | 0.87
COc1cccc2c1C(=O)c1c(O)c3c(c(O)c1C2=O)C[C@@](O)(C(=O)CO)C[C@@H]3O[C@H]1C[C@H](N)[C@@H](O)[C@H](C)O1 [Epirubicin HCl] | 0.67 | 1.13 | 1.09 | 1.17 | 0.9 | 0.96
COc1ccc(CC(C)NCC(O)c2ccc(O)c(NC=O)c2)cc1 (configuration not stated) [Formoterol Hemifumarate] | 1.03 | 0.84 | 1.01 | 1.24 | 1.08 | 1.09
Cc1[nH]c(/C=C2\C(=O)Nc3ccccc32)c(C)c1CCC(=O)O [Orantinib (TSU-68, SU6668)] | 0.88 | 0.69 | 1.15 | 1.25 | 0.91 | 0.88
CCCCCCCCCCCCCCCC[N+](C)(C)C [Cetrimonium Bromide (CTAB)] | 0.98 | 0.33 | 1 | 0.18 | 0.97 | 0.13
CO/N=C(\C(=O)N[C@@H]1C(=O)N2C(C(=O)O)=C(CSc3nnnn3C)CS[C@H]12)c1csc(N)n1 [Cefmenoxime hydrochloride] | 1.08 | 1.09 | 1.15 | 0.77 | 1.19 | 1.33
CNC[C@H](O)c1ccc(O)c(O)c1 [Epinephrine bitartrate] | 0.75 | 0.78 | 0.74 | 1.12 | 0.85 | 0.93
COC(=O)N(C)c1c(N)nc(-c2nn(Cc3ccccc3F)c3ncccc23)nc1N [Riociguat (BAY 63-2521)] | 0.73 | 0.67 | 0.72 | 0.68 | 0.68 | 0.65
CCN1CC(CCN2CCOCC2)C(c2ccccc2)(c2ccccc2)C1=O (configuration not stated) [Doxapram HCl] | 0.9 | 0.81 | 0.52 | 0.77 | 0.68 | 0.76
NC(=O)c1ccc(I)c([N+](=O)[O-])c1 [Iniparib (BSI-201)] | 0.91 | 1.05 | 0.91 | 0.59 | 0.64 | 0.69
Cc1onc(-c2c(Cl)cccc2Cl)c1C(=O)N[C@@H]1C(=O)N2[C@@H]1SC(C)(C)[C@@H]2C(=O)O [Dicloxacillin Sodium] | 0.93 | 1.01 | 0.92 | 1.02 | 1.08 | 0.94
Nc1ccc(S(=O)(=O)Nc2ccccn2)cc1 [Sulfapyridine] | 0.78 | 1.38 | 1.26 | 0.95 | 0.85 | 1.02
CCC(=O)O[C@]1(C(=O)CCl)[C@@H](C)C[C@H]2[C@@H]3C[C@H](F)C4=CC(=O)C=C[C@]4(C)[C@@]3(F)[C@@H](O)C[C@@]21C [Halobetasol Propionate] | 0.91 | 1.22 | 1.23 | 1.28 | 1.09 | 1.12
OC[C@@H](O)[C@@H](O)[C@H](O)[C@@H](O)CO [Sorbitol] | 0.98 | 0.82 | 1.05 | 1.11 | 1.09 | 0.88

Compound | growth (C. auris AR-384; 1 µM) | growth (C. auris AR-384; 10 µM) | growth (C. auris AR-386; 1 µM) | growth (C. auris AR-386; 10 µM) | growth (C. auris AR-387; 1 µM) | growth (C. auris AR-387; 10 µM)
CCN(CC)C(=S)SSC(=S)N(CC)CC [Disulfiram] | 0.9 | 0.82 | 1.04 | 0.24 | 1.01 | 0.05
Cc1cccc(Nc2ccncc2S(=O)(=O)NC(=O)NC(C)C)c1 [Torsemide] | 1.03 | 1.06 | 1.41 | 1.47 | 1.6 | 1.33
CN/C(=N\CCSCc1nc[nH]c1C)NC#N [Cimetidine] | 0.72 | 0.87 | 1.08 | 0.81 | 1.32 | 1.12
CC1(C)CCC(CN2CCN(c3ccc(C(=O)NS(=O)(=O)c4ccc(NCC5CCOCC5)c([N+](=O)[O-])c4)c(Oc4cnc5[nH]ccc5c4)c3)CC2)=C(c2ccc(Cl)cc2)C1 [Venetoclax (ABT-199, GDC-0199)] | 1.34 | 0.99 | 0.63 | 0.82 | 0.78 | 0.84
COC[C@H]1C[C@@H](c2nc(-c3ccc4c(c3)COc3cc5c(ccc6nc([C@@H]7CC[C@H](C)N7C(=O)[C@@H](NC(=O)OC)C(C)C)[nH]c65)cc3-4)c[nH]2)N(C(=O)[C@H](NC(=O)OC)c2ccccc2)C1 [Velpatasvir] | 0.94 | 1.12 | 0.74 | 0.82 | 0.74 | 0.8
O=C1NC(=O)C(c2ccccc2)(c2ccccc2)N1 [Phenytoin] | 1.52 | 1.52 | 1.2 | 1.29 | 1.16 | 1.04
Cn1ccnc1S [Methimazole] | 1.11 | 1.15 | 0.96 | 0.85 | 0.81 | 0.66
O=C(Nc1c(Cl)cncc1Cl)c1ccc(OC(F)F)c(OCC2CC2)c1 [Roflumilast] | 1.08 | 1.03 | 1.04 | 0.84 | 0.9 | 0.8
Cc1nc(C(=O)NCC(=O)O)c(O)c2ccc(Oc3ccccc3)cc12 [Roxadustat (FG-4592)] | 0.99 | 0.64 | 0.53 | 0.69 | 0.73 | 0.75
OCc1ccccc1 [Benzyl alcohol] | 1.19 | 0.97 | 0.89 | 0.86 | 1.09 | 1.2
Cc1nc(C)c(Cl)c(O)c1Cl [Clopidol] | 1.07 | 1.02 | 0.57 | 0.66 | 0.84 | 0.79
C[C@@H]1O[C@@H]1P(=O)(O)O [Fosfomycin Tromethamine] | 1.11 | 1.16 | 0.97 | 1.04 | 0.82 | 0.97
O=c1cc[nH]c(=O)[nH]1 [Uracil] | 0.94 | 0.72 | 0.93 | 0.85 | 0.72 | 1.03
Cc1cn([C@H]2O[C@@H](CO)[C@H](O)[C@H]2F)c(=O)[nH]c1=O [Clevudine] | 0.88 | 0.74 | 0.79 | 0.64 | 0.75 | 0.48
CC(C)[C@H]1CC[C@H](C(=O)N[C@H](Cc2ccccc2)C(=O)O)CC1 [Nateglinide] | 0.65 | 0.92 | 0.86 | 0.63 | 0.71 | 0.71
CCCc1nn(C)c2c(=O)[nH]c(-c3cc(S(=O)(=O)N4CCN(C)CC4)ccc3OCC)nc12 [Sildenafil Citrate] | 0.6 | 0.61 | 0.57 | 0.92 | 0.72 | 0.81

Only growth (C. auris AR-386; 1 µM), growth (C. auris AR-386; 10 µM) and growth (C. auris AR-387; 1 µM) (two entries from above):
Compound,growth (C. auris AR-386; 1 µM),growth (C. auris AR-386; 10 µM),growth (C. auris AR-387; 1 µM)
CN/C(=N\CCSCc1nc[nH]c1C)NC#N [Cimetidine],1.08,0.81,1.32
"CC1(C)CCC(CN2CCN(c3ccc(C(=O)NS(=O)(=O)c4ccc(NCC5CCOCC5)c([N+](=O)[O-])c4)c(Oc4cnc5[nH]ccc5c4)c3)CC2)=C(c2ccc(Cl)cc2)C1 [Venetoclax (ABT-199, GDC-0199)]",0.63,0.82,0.78
